Reference: the supplement of paper PMC8728848
The list shows a part of the results.

Assays:
Test in all cases: glycan array binding signal (z-score within array); higher = stronger binding
Conditions in all cases: glycan notation: IUPAC condensed, linker removed
[1] = molecular target: Neu5Ac(a2-3)GalNAc
In short: (§1)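 The Consortium for Functional Glycomics database supplied 3228 glycan arrays, of which those lacking an available protein sequence were dropped. The binding signal, a within-array Z-score, was averaged across arrays of the same protein sequence and across linkers. Negative scores can be read as non-binding.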

[2] = molecular target: Neu5Ac(a2-3)GalNAc(b1-4)GlcNAc
In short: as §1

[3] = molecular target: Neu5Ac(a2-3)[GalNAc(b1-4)]Gal(b1-4)Glc
In short: as §1

[4] = molecular target: Neu5Ac(a2-3)[GalNAc(b1-4)]Gal(b1-4)GlcNAc
In short: as §1

[5] = molecular target: Neu5Ac(a2-3)[GalNAc(b1-4)]Gal(b1-4)GlcNAc(b1-3)GalNAc
In short: as §1

[6] = molecular target: Neu5Ac(a2-3)[Neu5Ac(a2-6)]GalNAc
In short: as §1

[7] = molecular target: Neu5Ac(a2-6)Gal
In short: as §1

[8] = molecular target: Neu5Ac(a2-6)Gal(b1-3)GlcNAc(b1-3)[Gal(b1-4)GlcNAc(b1-6)]Gal(b1-4)Glc
In short: as §1

[9] = molecular target: Neu5Ac(a2-6)Gal(b1-4)Glc
In short: as §1

[10] = molecular target: Neu5Ac(a2-6)Gal(b1-4)GlcNAc
In short: as §1

[11] = molecular target: Neu5Ac(a2-6)Gal(b1-4)GlcNAc(b1-2)Man
In short: as §1

[12] = molecular target: Neu5Ac(a2-6)Gal(b1-4)GlcNAc(b1-2)Man(a1-3)Man(b1-4)GlcNAc(b1-4)GlcNAc
In short: as §1

[13] = molecular target: Neu5Ac(a2-6)Gal(b1-4)GlcNAc(b1-2)Man(a1-3)[Gal(b1-4)GlcNAc(b1-2)Man(a1-6)]Man(b1-4)GlcNAc(b1-4)GlcNAc
In short: as §1

[14] = molecular target: Neu5Ac(a2-6)Gal(b1-4)GlcNAc(b1-2)Man(a1-3)[GlcNAc(b1-2)Man(a1-6)]Man(b1-4)GlcNAc(b1-4)GlcNAc
In short: as §1

[15] = molecular target: Neu5Ac(a2-6)Gal(b1-4)GlcNAc(b1-2)Man(a1-3)[GlcNAc(b1-4)][Neu5Ac(a2-6)Gal(b1-4)GlcNAc(b1-2)Man(a1-6)]Man(b1-4)GlcNAc(b1-4)GlcNAc
In short: as §1

[16] = molecular target: Neu5Ac(a2-6)Gal(b1-4)GlcNAc(b1-2)Man(a1-3)[Man(a1-6)]Man(b1-4)GlcNAc(b1-4)GlcNAc
In short: as §1

[17] = molecular target: Neu5Ac(a2-6)Gal(b1-4)GlcNAc(b1-2)Man(a1-3)[Neu5Ac(a2-3)Gal(b1-4)GlcNAc(b1-2)Man(a1-6)]Man(b1-4)GlcNAc(b1-4)GlcNAc
In short: as §1

[18] = molecular target: Neu5Ac(a2-6)Gal(b1-4)GlcNAc(b1-2)Man(a1-3)[Neu5Ac(a2-6)Gal(b1-4)GlcNAc(b1-2)Man(a1-6)]Man(b1-4)GlcNAc(b1-4)GlcNAc
In short: as §1

[19] = molecular target: Neu5Ac(a2-6)Gal(b1-4)GlcNAc(b1-2)Man(a1-3)[Neu5Ac(a2-6)Gal(b1-4)GlcNAc(b1-2)Man(a1-6)]Man(b1-4)GlcNAc(b1-4)[Fuc(a1-6)]GlcNAc
In short: as §1

[20] = molecular target: Neu5Ac(a2-6)Gal(b1-4)GlcNAc(b1-2)Man(a1-6)Man(b1-4)GlcNAc(b1-4)GlcNAc
In short: as §1

[21] = molecular target: Neu5Ac(a2-6)Gal(b1-4)GlcNAc(b1-2)Man(a1-6)[Gal(b1-4)GlcNAc(b1-2)Man(a1-3)]Man(b1-4)GlcNAc(b1-4)GlcNAc
In short: as §1

[22] = molecular target: Neu5Ac(a2-6)Gal(b1-4)GlcNAc(b1-2)Man(a1-6)[GlcNAc(b1-2)Man(a1-3)]Man(b1-4)GlcNAc(b1-4)GlcNAc
In short: as §1

[23] = molecular target: Neu5Ac(a2-6)Gal(b1-4)GlcNAc(b1-2)Man(a1-6)[Man(a1-3)]Man(b1-4)GlcNAc(b1-4)GlcNAc
In short: as §1

[24] = molecular target: Neu5Ac(a2-6)Gal(b1-4)GlcNAc(b1-2)[Neu5Ac(a2-6)Gal(b1-4)GlcNAc(b1-4)]Man(a1-3)[GlcNAc(b1-4)][Neu5Ac(a2-6)Gal(b1-4)GlcNAc(b1-2)[Neu5Ac(a2-6)Gal(b1-4)GlcNAc(b1-6)]Man(a1-6)]Man(b1-4)GlcNAc(b1-4)GlcNAc
In short: as §1

[25] = molecular target: Neu5Ac(a2-6)Gal(b1-4)GlcNAc(b1-2)[Neu5Ac(a2-6)Gal(b1-4)GlcNAc(b1-4)]Man(a1-3)[GlcNAc(b1-4)][Neu5Ac(a2-6)Gal(b1-4)GlcNAc(b1-4)Man(a1-6)]Man(b1-4)GlcNAc(b1-4)GlcNAc
In short: as §1

[26] = molecular target: Neu5Ac(a2-6)Gal(b1-4)GlcNAc(b1-2)[Neu5Ac(a2-6)Gal(b1-4)GlcNAc(b1-6)]Man(a1-6)[Neu5Ac(a2-6)Gal(b1-4)GlcNAc(b1-2)Man(a1-3)][GlcNAc(b1-4)]Man(b1-4)GlcNAc(b1-4)GlcNAc
In short: as §1

[27] = molecular target: Neu5Ac(a2-6)Gal(b1-4)GlcNAc(b1-3)Gal(b1-3)GlcNAc
In short: as §1

[28] = molecular target: Neu5Ac(a2-6)Gal(b1-4)GlcNAc(b1-3)Gal(b1-4)GlcNAc
In short: as §1

[29] = molecular target: Neu5Ac(a2-6)Gal(b1-4)GlcNAc(b1-3)Gal(b1-4)GlcNAc(b1-2)Man(a1-3)[Neu5Ac(a2-6)Gal(b1-4)GlcNAc(b1-3)Gal(b1-4)GlcNAc(b1-2)Man(a1-6)]GalNAc
In short: as §1

[30] = molecular target: Neu5Ac(a2-6)Gal(b1-4)GlcNAc(b1-3)Gal(b1-4)GlcNAc(b1-3)Gal(b1-4)GlcNAc
In short: as §1

[31] = molecular target: Neu5Ac(a2-6)Gal(b1-4)GlcNAc(b1-3)Gal(b1-4)GlcNAc(b1-3)Gal(b1-4)GlcNAc(b1-2)Man(a1-3)[Neu5Ac(a2-6)Gal(b1-4)GlcNAc(b1-3)Gal(b1-4)GlcNAc(b1-3)Gal(b1-4)GlcNAc(b1-2)Man(a1-6)]GalNAc
In short: as §1

[32] = molecular target: Neu5Ac(a2-6)Gal(b1-4)GlcNAc(b1-3)Gal(b1-4)GlcNAc(b1-3)GalNAc
In short: as §1

[33] = molecular target: Neu5Ac(a2-6)Gal(b1-4)GlcNAc(b1-3)Gal(b1-4)GlcNAc(b1-3)[Neu5Ac(a2-6)Gal(b1-4)GlcNAc(b1-3)Gal(b1-4)GlcNAc(b1-6)]GalNAc
In short: as §1

[34] = molecular target: Neu5Ac(a2-6)Gal(b1-4)GlcNAc(b1-3)Gal(b1-4)GlcNAc(b1-6)[Gal(b1-3)]GalNAc
In short: as §1

[35] = molecular target: Neu5Ac(a2-6)Gal(b1-4)GlcNAc(b1-3)Gal(b1-4)[Fuc(a1-3)]GlcNAc(b1-3)Gal(b1-4)[Fuc(a1-3)]GlcNAc
In short: as §1

[36] = molecular target: Neu5Ac(a2-6)Gal(b1-4)GlcNAc(b1-3)GalNAc
In short: as §1

[37] = molecular target: Neu5Ac(a2-6)Gal(b1-4)GlcNAc(b1-3)[Neu5Ac(a2-6)Gal(b1-4)GlcNAc(b1-6)]GalNAc
In short: as §1

[38] = molecular target: Neu5Ac(a2-6)Gal(b1-4)GlcNAc(b1-6)GalNAc
In short: as §1

B1: Tp0751, 83732 (protein)
chain: MSYYHHHHHHLESTSLYKKAGFQHGHVPPRRIPPHDTFGALPTAALPSNARDTAAHPSDTADNTSGSSTTTDPRSHGNAPPAPVGGAAQTHTQPPVQTAMRIALWNRATHGEQGALQHLLAGLWIQTEISPNSGDIHPLLFFDREHAEITFSRASVQEIFLVDSAHTHRKTVSFLTRNTAISSIRRRLEVTFESHEVIHVRAVEDVARLKIGSTSMWDGQYTRYHAGPASAPSP
glycan array binding signal (z-score) [1]: -0.304 | glycan array binding signal (z-score) [2]: 0.045 | glycan array binding signal (z-score) [3]: -0.492 | glycan array binding signal (z-score) [4]: -0.76 | glycan array binding signal (z-score) [5]: 0.098 | glycan array binding signal (z-score) [6]: -0.574 | glycan array binding signal (z-score) [7]: 0.399 | glycan array binding signal (z-score) [8]: -0.484 | glycan array binding signal (z-score) [9]: -0.353 | glycan array binding signal (z-score) [10]: -0.264 | glycan array binding signal (z-score) [11]: -0.306 | glycan array binding signal (z-score) [12]: -0.564 | glycan array binding signal (z-score) [13]: -0.426 | glycan array binding signal (z-score) [14]: -0.38 | glycan array binding signal (z-score) [15]: -0.305 | glycan array binding signal (z-score) [16]: -0.358 | glycan array binding signal (z-score) [17]: 0.233 | glycan array binding signal (z-score) [18]: -0.21 | glycan array binding signal (z-score) [19]: -0.728 | glycan array binding signal (z-score) [20]: 0.136 | glycan array binding signal (z-score) [21]: -0.478 | glycan array binding signal (z-score) [22]: -0.321 | glycan array binding signal (z-score) [23]: 0.195 | glycan array binding signal (z-score) [24]: -0.463 | glycan array binding signal (z-score) [25]: -0.371 | glycan array binding signal (z-score) [26]: 0.005 | glycan array binding signal (z-score) [27]: 0.187 | glycan array binding signal (z-score) [28]: 0.086 | glycan array binding signal (z-score) [29]: 0.498 | glycan array binding signal (z-score) [30]: -0.558 | glycan array binding signal (z-score) [31]: 0.794 | glycan array binding signal (z-score) [32]: -0.172 | glycan array binding signal (z-score) [33]: 0.297 | glycan array binding signal (z-score) [34]: -0.341 | glycan array binding signal (z-score) [35]: -0.049 | glycan array binding signal (z-score) [36]: 0.562 | glycan array binding signal (z-score) [37]: 0.221 | glycan array binding signal (z-score) [38]: 0.605
